Reference: PubChem BioAssay AID588590 (National Center for Advancing Translational Sciences (NCATS), 2011)
Screen size: about 390,000 compounds; about 4,000 (1%) were called active. The shares of active, inactive and inconclusive entries below differ from those in the screen. The call rests on the fitted dose curve; in most records, active means well fitted inhibition curve with a large enough effect; inconclusive means small, poorly fitted or top-dose-only effect, or another doubt; inactive means no such curve, though single readings can be large or run the other way. A potency beside an inconclusive call is a rough fit, not a confirmed value.

Sequences of proteins named here, by UniProt entry; tags and fusion partners are left off. A change or cut given only in a name is not applied to a line headed by its entry.
UniProt Q9UNA4: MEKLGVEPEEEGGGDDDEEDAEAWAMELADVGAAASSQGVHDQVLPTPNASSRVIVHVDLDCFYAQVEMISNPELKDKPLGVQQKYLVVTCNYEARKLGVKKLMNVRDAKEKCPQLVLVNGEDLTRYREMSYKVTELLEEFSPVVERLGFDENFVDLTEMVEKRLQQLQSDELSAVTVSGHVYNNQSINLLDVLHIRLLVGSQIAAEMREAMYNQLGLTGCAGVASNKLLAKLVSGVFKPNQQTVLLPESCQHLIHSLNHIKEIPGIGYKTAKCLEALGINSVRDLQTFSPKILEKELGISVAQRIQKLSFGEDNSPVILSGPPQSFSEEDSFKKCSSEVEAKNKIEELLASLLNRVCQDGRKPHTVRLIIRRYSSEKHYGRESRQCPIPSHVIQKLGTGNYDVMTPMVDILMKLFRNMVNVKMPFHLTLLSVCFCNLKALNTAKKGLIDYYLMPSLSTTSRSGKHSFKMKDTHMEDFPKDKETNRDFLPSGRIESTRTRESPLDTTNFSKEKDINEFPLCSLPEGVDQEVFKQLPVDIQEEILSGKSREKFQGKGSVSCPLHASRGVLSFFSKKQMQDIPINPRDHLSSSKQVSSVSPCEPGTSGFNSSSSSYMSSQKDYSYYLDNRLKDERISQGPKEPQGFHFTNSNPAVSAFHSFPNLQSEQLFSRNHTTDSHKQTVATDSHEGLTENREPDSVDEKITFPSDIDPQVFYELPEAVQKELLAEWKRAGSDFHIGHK

target: DNA polymerase iota (Homo sapiens) (UniProt Q9UNA4); test: qHTS for Inhibitors of Polymerase Iota; conditions: Pol iota fluorescent replication assay, 10 min; series mostly up to 115 µM
How it was run: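 Fluorescent replication assay read twice, at 0 min and 10 min after adding 50 nM (final) substrate. Enzyme (10 nM) and compounds were first incubated 15 min at room temperature; enzyme-free buffer wells were negative controls.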
Potency means the concentration at half of the fitted maximal effect.

Row | SMILES | Potency
1 | O=S1(=O)[C@H]2C[C@@H]3C=C[C@@]2(CN1Cc1ccc(F)cc1)O3 | inconclusive: 89.1 µM [inhibitor, single point]
2 | CC(=O)c1c(C)[nH]c(C(=O)CSc2nnc(-c3ccco3)o2)c1C | inconclusive: 39.8 µM [inhibitor, partial curve, poor fit]
3 | CC(C)(c1cc(Br)c(O)c(Br)c1)c1cc(Br)c(O)c(Br)c1 | inconclusive: 35.5 µM [inhibitor, full curve, poor fit]
4 | O=C(Nc1ccc(Cl)c(Cl)c1)Nc1cc(C(=O)N2CCOCC2)ccc1N1CCCCC1 | inconclusive: 22.4 µM [inhibitor, single point]
5 | COc1ccc(C(=O)Nc2ccc(C(=O)NCCc3ccccc3)cc2)cc1 | inconclusive: 20 µM [inhibitor, full curve]
6 | COc1ccc(OC)c(C(c2nnnn2C2CCCC2)N2CCN(c3ccc(F)cc3)CC2)c1 (configuration not stated) | inconclusive: 8.91 µM [inhibitor, full curve, poor fit]
7 | c1cnc2nc3c4ccccc4c4ccccc4c3nc2c1 | inconclusive: 17.8 µM [inhibitor, partial curve]
8 | O=C(N/N=C/c1ccoc1)c1ccc(Cl)cc1Cl | inconclusive: 79.4 µM [inhibitor, partial curve, poor fit]
9 | O=C(Nc1nnc(SCc2ccc(Cl)cc2)s1)c1ccco1 | inconclusive: 31.6 µM [inhibitor, single point]
10 | CN(C(=O)c1cnccn1)c1nnc(-c2cnccn2)s1 | inconclusive: 39.8 µM [inhibitor, single point]
11 | CC1Cc2ccccc2N1C(=O)CCS(=O)(=O)c1cccc2nonc12 (configuration not stated) | inconclusive: 7.08 µM [inhibitor, single point]
12 | Cc1ccc(C2CC(c3cccs3)=NN2C(=O)CCl)cc1 (configuration not stated) | inconclusive: 79.4 µM [inhibitor, partial curve]
13 | CCOC(=O)Cc1ccc(NC(=O)Nc2cc3c(cc2N2CCCCC2)n(C)c(=O)n3C)cc1 | inactive
14 | CN1CCN(C2=C(Cl)C(=O)C(c3cnc(N4CCCCC4)s3)=C(Cl)C2=O)CC1 | inconclusive: 15.8 µM [inhibitor, full curve, poor fit]
15 | COc1ccccc1CNC(=O)C(NS(=O)(=O)c1ccc2c(c1)OCCO2)C(C)C (configuration not stated) | inconclusive: 89.1 µM [inhibitor, partial curve, poor fit]
16 | Cc1ccc(C)c(CNC(=O)c2ccc3c(c2)nc2n3CCC(C)C2)c1 (configuration not stated) | inactive
17 | COc1ccccc1-c1cc2nc(C)c(CCC(=O)NCCc3ccc(SC)cc3)c(C)n2n1 | inactive
